Values of other authors as cited in patent US10201537B2 (INFLAMMATORY RESPONSE RESEARCH, INC., priority 2013, dated 2019).

Conditions: in vivo

With `O=C(O)COCCN1CCN([C@H](c2ccccc2)c2ccc(Cl)cc2)CC1` [Levocetirizine] as the compound, how does the “time to peak plasma level” value read?
The value was 0.9 h.
